Results on one molecule are retold here after paper PMC9692554.

For test [1], the target named is pMarR double mutant R67A_S66A (cyanophage P-SSP7). The experiment in a line: two-hybrid; GAL4 AD and BD fusions (tag at N or C terminus), S. cerevisiae YH109; three co-transformants spotted in serial dilutions on CSM -trp -leu -his with 5 mM 3-AT, 30 °C.
Test [2] concerns the target pMarR double mutant R67A_G106A (cyanophage P-SSP7). The description is as above.

These are yes or no findings as the source states them, for the method shown. For some assays here: Binding calls can cover weak binding; strength is not graded here. Sequences can lack the tags named with a protein.

B1: rpoA (PMM1535), α subunit of the RNAP, yeast two-hybrid fusion (protein, UniProt Q7UZW6 1-312)
chain: MLQYQIDRIDHQISDDRSQTGTFLIGPLERGQATTLGNSLRRVLMGGLEGSAVTAVRISGINHEYATIPGVREDVLDILLNCKQLSINSSNPETEIGRLVVNGPMEVKANDIQFSSQVEIVDGEKPIATIQEGHNLELEIHVERGVGYRPVDRRNQETTAIDLLQIDAVFMPVKRVNFTIDETAVAEGATGRERLTMEVVTDGSTSPDDAIAEAANQLIELFQPLATVTMVEEIPEEPEPSPEAQIPLEELNLSVRAYNCLKRAQVNSVSDLMGFSYEDLLEIKNFGSKSADEVIEALERIGISIPQSRTSV
B1: the binding result in test [1] is recorded as “binds”; in test [2], “no binding”.
